This series can be described thus: Aqueous solubility of the compound in pH 6.8 buffer.

The structures appear in SMILES notation. Converted amounts (≈) assume the structure as drawn.

Take `Nc1nc2ccc(OC(F)(F)F)cc2s1` [RILUZOLE]: the solubility (as a rule, the concentration that dissolves in the medium under given conditions) stood at 986 µM (≈ 231 µg/mL).

The record behind these values is ChEMBL document CHEMBL4613261, “Metabolic and Pharmaceutical Aspects of Fluorinated Compounds” (J Med Chem, 2020).
